Laboratory results from PubChem BioAssay AID651640 (Broad Institute, 2012).
Hit rate of the full screen: of about 350,000 compounds, about 6,000 (1.7%) were called active. This list was built around the results that the source calls inconclusive (neither active nor inactive); the mix of calls is not that of the screen. Rule as the data show it: active = CPE inhibition above about 20% (passing the limit was not always enough); inconclusive = no clear call, values can overlap the other calls; tested in BHK-21 cells. A structure can be active in one record and inactive in another.

assay: protection of cells from dengue 2 killing – plate reader, single concentration, primary screen (AID 651640); conditions: DENV2-infected cells, cytopathic effect rescue, at 9.99 µM, stronger effect = higher value;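 also: 0% = median of neutral control wells and 100% = median of positive control wells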

| Structure (SMILES) | CPE inhibition |
| --- | --- |
| O=C(C[C@H]1C[C@H]2c3cc(NS(=O)(=O)c4ccc(F)cc4)ccc3O[C@H]2[C@@H](CO)O1)NCc1cccc(F)c1 | inactive: -1.7% |
| COc1ccc(-c2ccc3n(c2=O)C[C@@H]2N[C@H]3[C@H](C(=O)N3CCCCC3)[C@H]2CO)cc1 | inactive: -0.0165% |
| Cc1ccc(NC(=O)N2N=C(c3ccc(F)cc3)CC2c2ccc(F)cc2)cc1 (stereo not given) | inconclusive: 45.8% |
| COc1c(O)cc2oc(-c3ccc(O)cc3)cc(=O)c2c1O | inconclusive: 39.4% |
| O=C(C[C@@H]1CC[C@H]2[C@@H](COC[C@@H](O)CN2Cc2cccc(C(F)(F)F)c2)O1)NCCc1ccccc1 | active: 25.7% |
| OC1CCN(Cc2cn(Cc3ccccc3)nc2-c2cc3ccccc3o2)CC1 | inconclusive: 32.7% |
| Cc1ccc(N2CC(C(=O)NCCC3=CCCCC3)CC2=O)cc1 (stereo not given) | inconclusive: 24% |
| COCCNC(=O)c1ccc2c3n(nc2c1)-c1ccc(C)cc1CO3 | inconclusive: 70.5% |
| CO[C@H](CN(C)Cc1ccc(-c2ccccn2)cc1)[C@H](C)CN(C(=O)Nc1ccc(F)cc1)[C@@H](C)CO | inconclusive: 29.5% |
| C/C=C/c1cnc2c(c1)C(=O)N([C@@H](C)CO)C[C@H](C)[C@@H](CN(C)C(=O)c1cnccn1)O2 | inconclusive: 47.7% |
| COc1ccccc1S(=O)(=O)N(C)C[C@H]1OCc2ccccc2-c2c(n(C)c3ccccc23)C(=O)N([C@H](C)CO)C[C@@H]1C | inconclusive: 22.7% |
| Cc1ccc(S(=O)(=O)Nc2ccc3c(c2)C(=O)N([C@@H](C)CO)C[C@@H](C)[C@H](CN(C)S(=O)(=O)c2cn(C)cn2)OCCCC[C@@H](C)O3)cc1 | active: 20.5% |
| C[C@H](CO)N1C[C@H](C)[C@H](CN(C)Cc2ccc(C(=O)O)cc2)Oc2c(NC(=O)c3ccncc3)cccc2C1=O | inconclusive: 24.1% |
| C[C@H]1CN([C@@H](C)CO)C(=O)Cc2cc(NS(C)(=O)=O)ccc2O[C@H]1CN(C)C(=O)Nc1ccc(C(F)(F)F)cc1 | inactive: 2.78% |
| COc1ccc(CN(C)C[C@@H]2OCCCC[C@@H](C)Oc3ccc(NC(=O)Nc4ccccc4)cc3C(=O)N([C@@H](C)CO)C[C@H]2C)cc1 | inconclusive: 33.1% |
| CO[C@@H]1CN(C)C(=O)c2cc(NC(C)=O)ccc2OC[C@@H](C)N(Cc2cc(F)ccc2F)C[C@@H]1C | inconclusive: 29.7% |
| CCC(CC)NC(=O)CN1CCN(S(=O)(=O)c2ccc(Br)s2)CC1 | inconclusive: 28.9% |
| CN1C(=O)c2cc(NC(=O)c3ccc4c(c3)OCO4)ccc2OC[C@H]2O[C@H](CC(=O)O)CC[C@@H]21 | inconclusive: 23.3% |
| CO[C@@H]1CN(C)C(=O)c2ccc(NC(=O)C3CCC3)cc2OC[C@@H](C)N(CC2CCCCC2)C[C@H]1C | inactive: -14.9% |
| N#C/C(=C\c1ccc(-c2ccccc2C(=O)O)o1)c1nc2ccccc2[nH]1 | inconclusive: 21.8% |
| Cc1cccc(-c2ccc(C3[C@H]4CNC[C@@H]3N4S(=O)(=O)c3ccccc3F)cc2)c1 (stereo not given in full) | active: 22.1% |
| COc1ccc(S(=O)(=O)Nc2cccc3c2O[C@@H](CN(C)C(=O)Nc2c(C)noc2C)[C@@H](C)CN([C@H](C)CO)C3=O)cc1 | inconclusive: 40.3% |
| C[C@H](O)C#Cc1ccc([C@H]2[C@H](CO)N3CCCCN(C(=O)c4ccc(F)cc4)C[C@@H]23)cc1 | active: 41.2% |
| C[C@H](CO)N1C[C@H](C)[C@H](CN(C)Cc2ccccn2)Oc2ncc(C3=CCCCC3)cc2C1=O | inconclusive: 30.2% |

At a glance, some entries already given.

| Structure (SMILES) | CPE inhibition |
| --- | --- |
| COc1ccc(S(=O)(=O)Nc2cccc3c2O[C@@H](CN(C)C(=O)Nc2c(C)noc2C)[C@@H](C)CN([C@H](C)CO)C3=O)cc1 | inconclusive: 40.3% |
| C[C@H](O)C#Cc1ccc([C@H]2[C@H](CO)N3CCCCN(C(=O)c4ccc(F)cc4)C[C@@H]23)cc1 | active: 41.2% |

Next part:

| Structure (SMILES) | CPE inhibition |
| --- | --- |
| Cc1occc1-c1nnc(SCC(=O)N(C)c2ccccc2)o1 | inconclusive: 22.1% |
| CC(CC(=O)N(C)c1c(N)n(Cc2ccccc2)c(=O)[nH]c1=O)c1ccccc1 (stereo not given) | inconclusive: 37.7% |
| Cc1nn(C)c(C)c1CNC(=O)c1cc2n(n1)C(C(F)(F)F)CC(c1cccs1)N2 (stereo not given) | inconclusive: 21.7% |
| CCCNC(=O)CSc1n[nH]c(=O)n1CCc1ccccc1 | inconclusive: 53.9% |
| CO[C@H]1CN(C)C(=O)c2cc(NC(C)=O)ccc2OC[C@H](C)N(C(=O)c2ccccn2)C[C@H]1C | inactive: 10.5% |
| C[C@@H]1CN([C@@H](C)CO)C(=O)Cc2cc(NC(=O)CCC(F)(F)F)ccc2O[C@H]1CN(C)S(=O)(=O)c1ccc(Cl)cc1 | inconclusive: 20.8% |
| O=C(Cc1ccc2c(c1)OCO2)NN=Cc1ccc([N+](=O)[O-])o1 | active: 60.7% |
| COc1ccc(CNC(=O)COC(=O)c2cc(C)nc3ccccc23)cc1 | inconclusive: 30.4% |
| Cc1nn(CC(=O)NCCCN2CCC(Cc3ccccc3)CC2)c(=O)c2cc(-c3ccccc3)nn12 | inactive: 11.8% |
| COc1ccc(-c2c(-c3cc(OC)cc(OC)c3)sc3ccc(OC)cc23)cc1 | inconclusive: 27.9% |
| C#CCOCCOCCOCCNc1nc(N2CCN(C(=O)Cn3cc(CC(C)O)nn3)CC2)nc(N2CCN(C(=O)[C@H](CCCCN)n3cc(CCCC)nn3)CC2)n1 (stereo not given in full) | inconclusive: 30.2% |
| CCOc1ccc(NC(=O)CSc2ccc3nnc(-c4ccccn4)n3n2)cc1 | inactive: -9.83% |
| Cc1ccc(-c2ccc3c(c2)O[C@@H](CN(C)C(=O)Nc2ccccc2)[C@H](C)CN([C@@H](C)CO)S3(=O)=O)cc1 | inconclusive: 59% |
| CCOc1ccc2[nH]c3ncccc3c(=O)c2c1 | active: 30.2% |
| O=C(O)c1ccc(CNC(=O)C2CCCN2C(=O)OCc2ccccc2)cc1 (stereo not given) | active: 25.5% |
| COc1cccc(-c2cn(CC[C@H]3CC[C@H](NC(=O)CN(C)C)[C@H](CO)O3)nn2)c1 | inactive: -8.73% |
| O=C(c1cccnc1)N1C[C@H]2[C@@H](c3ccccc31)[C@H](CO)N2C(=O)C1CCOCC1 | inactive: 4.33% |
| O=C(CN1C(=O)NC(Cc2ccccc2)C1=O)Nc1ccc(OC(F)(F)F)cc1 (stereo not given) | inconclusive: 58.5% |
| OC(c1cccc(F)c1)c1ncc(-c2ccc(Oc3ccccc3)cc2)[nH]1 (stereo not given) | inconclusive: 39.1% |
| CCOc1cc(NC(=S)NCc2ccccc2)c(OCC)cc1NC(=O)C(C)C | inconclusive: 28.4% |
| C[C@@H]1CN([C@H](C)CO)C(=O)c2cc(NS(=O)(=O)c3ccc(Cl)cc3)ccc2O[C@@H]1CN(C)Cc1ccccc1 | active: 41.9% |
| CC(=O)Nc1ccc2c(c1)C(=O)N(C)[C@H]1CC[C@H](CC(=O)Nc3cccc(C(C)C)c3)O[C@@H]1CO2 | active: 108% |
| COc1ccc(S(=O)(=O)N[C@H]2CC[C@@H](CC(=O)N3CCN(c4ccccc4)CC3)O[C@H]2CO)cc1 | inconclusive: 57.3% |
| O=C(NCC1CC1)C1(S(=O)(=O)c2ccccc2)CC=CC1 | active: 21.5% |

| Structure (SMILES) | CPE inhibition |
| --- | --- |
| CN(C)CCNc1cccc2sc3ccc(O)cc3c(=O)c12 | inactive: -2.97% |
| COc1ccc(-n2nnnc2C(c2cccs2)N2CCN(C/C=C/c3ccccc3)CC2)cc1 (stereo not given) | inconclusive: 35.8% |
| Cc1cc(OCC(=O)NCCc2ccc(Cl)cc2)c2c(C)cc(=O)oc2c1 | inactive: -6.45% |
| O=C(Nc1ccn(CCCN2CCN(c3ncccn3)CC2)c(=O)n1)OCc1ccccc1 | inactive: 5.61% |
| CCN(c1cccc(C)c1)C1C(=O)c2ccccc2N1C(C)=O (stereo not given) | inconclusive: 51.8% |
| CC(OC(=O)CCC1CCCCC1)C(=O)Nc1ccc(S(N)(=O)=O)cc1 (stereo not given) | inconclusive: 22.9% |
| COC(=O)Nc1ccc(S(=O)(=O)Nc2cc(C(F)(F)F)c[nH]c2=O)cc1 | inconclusive: 40.2% |
| CCCC[C@@H]1CCCO[C@@](C(=O)NCc2ccccn2)(C(F)(F)F)C1 | inconclusive: 28.5% |
| CC(=O)c1cccc(-c2cnc3c(NC=O)cc(-c4ccccc4F)cn23)c1 | inconclusive: 35.6% |
| CO[C@@H]1CN(C)C(=O)c2ccc(NC(=O)c3nc4ccccc4s3)cc2OC[C@@H](C)N(Cc2cncnc2)C[C@H]1C | inactive: -9.56% |
| CCOc1ccc(CCNC(=O)COC(=O)COc2ccc(Br)cc2)cc1OCC | inactive: 3.83% |
| COc1ccc(CNC(=O)C[C@H]2C=C[C@@H](NC(=O)c3ccc4c(c3)OCO4)[C@H](CO)O2)cc1 | inconclusive: 21.7% |
| NC(=O)CC(NC(=O)c1cccc(Br)c1)c1ccc(NC2CCN(Cc3ccccc3)CC2)c([N+](=O)[O-])c1 (stereo not given) | active: 70.3% |
| O=C(Nc1ccc(Cl)c(C(F)(F)F)c1)[C@@H]1CC=C[C@@H]2CCN(C3CC3)C(=O)[C@@H]21 | inconclusive: 33.4% |
| Cc1ccc(NC(=S)N2CCN(S(=O)(=O)c3ccc(F)cc3)CC2)cc1 | inconclusive: 36.9% |
| COc1ccc(C(C)NC(=O)c2ccccc2Cl)cc1OC (stereo not given) | active: 64.3% |
| O=C(O)C[C@H]1c2cc(F)ccc2S(=O)(=O)N1C1CCN(Cc2ccccc2)CC1 | inconclusive: 54.9% |
| C[C@@H]1CN([C@@H](C)CO)C(=O)Cc2cc(NC(=O)Nc3cccc4ccccc34)ccc2O[C@@H]1CN(C)Cc1ccc(C(=O)Nc2ccccc2N)cc1 | inactive: -10.4% |
| COCC(C)OC(=O)/C(C#N)=C\c1coc2ccc(C)cc2c1=O (stereo not given) | inconclusive: 53.6% |
| CCCNC(=O)N1C[C@H](O)COC[C@@H]2O[C@H](CC(=O)N3CCC(Cc4ccccc4)CC3)CC[C@H]21 | inconclusive: 32.4% |
| C[C@H]1CN([C@@H](C)CO)C(=O)c2cccc(NC(=O)Nc3ccc4c(c3)OCO4)c2O[C@@H]1CN(C)S(=O)(=O)c1ccccc1 | inactive: -9.16% |
| C[C@@H]1CN([C@@H](C)CO)C(=O)c2cc(NS(=O)(=O)c3cn(C)cn3)ccc2O[C@@H](C)CCCCO[C@H]1CN(C)Cc1ccc2c(c1)OCO2 | inconclusive: 28.8% |
